## Screening data, single-dose tests

Protein sequences, listed by entry. Tags and fused reporters are not part of them.
UniProt P9WPC5, whole entry: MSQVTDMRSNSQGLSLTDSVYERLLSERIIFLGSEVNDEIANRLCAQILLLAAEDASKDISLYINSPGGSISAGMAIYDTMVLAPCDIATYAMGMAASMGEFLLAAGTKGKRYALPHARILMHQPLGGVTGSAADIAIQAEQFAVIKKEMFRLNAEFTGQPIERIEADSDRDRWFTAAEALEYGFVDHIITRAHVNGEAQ
UniProt P9WPC3, whole entry partner: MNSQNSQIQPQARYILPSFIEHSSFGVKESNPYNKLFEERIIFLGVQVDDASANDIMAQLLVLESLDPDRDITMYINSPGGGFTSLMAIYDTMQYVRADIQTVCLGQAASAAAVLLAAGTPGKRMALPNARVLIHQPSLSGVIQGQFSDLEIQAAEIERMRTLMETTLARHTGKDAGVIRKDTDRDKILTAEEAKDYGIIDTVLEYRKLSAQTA
UniProt P9WNZ1, whole entry: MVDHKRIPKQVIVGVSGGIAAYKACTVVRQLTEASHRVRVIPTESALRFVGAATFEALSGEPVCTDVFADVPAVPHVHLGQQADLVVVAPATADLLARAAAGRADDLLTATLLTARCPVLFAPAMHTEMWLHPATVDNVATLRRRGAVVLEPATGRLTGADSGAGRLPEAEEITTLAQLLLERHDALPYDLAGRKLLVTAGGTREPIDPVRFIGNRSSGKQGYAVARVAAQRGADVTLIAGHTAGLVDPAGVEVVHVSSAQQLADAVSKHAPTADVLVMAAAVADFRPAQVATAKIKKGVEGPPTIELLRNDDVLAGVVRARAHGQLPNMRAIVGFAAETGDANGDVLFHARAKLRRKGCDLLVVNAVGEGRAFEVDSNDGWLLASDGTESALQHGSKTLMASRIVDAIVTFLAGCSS

A: 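ClpP1P2, Mycobacterium tuberculosis (UniProt P9WPC5 and UniProt P9WPC3). Protease assay of ClpP1P2, read by the AMC dye that it sets free. Tested at 50 µM. Direction is inferred from only a few compounds that gave an IC50; most scored high, so higher reads as stronger inhibition. Most other retested compounds had strongly negative values. Of about 69,000 compounds tested this way, about 10 (0.015%) reached 50% or more in at least one test.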
B: 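Enzyme assay of CoaBC with a phosphate dye (Biomol Green) read at 650 nm. Target: Coenzyme A biosynthesis protein CoaBC, Mycobacterium tuberculosis (UniProt P9WNZ1). Concentration: 30 µM. Higher reads as stronger inhibition, judged from the few compounds that gave an IC50. Most strong results did not repeat in a second test. Of about 67,000 compounds tested this way, about 40 (0.06%) reached 50% or more in at least one test.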

The filed quantity is “Percent Effect” (%).
How 0% and 100% were set is not recorded. Most values in the screen are low, and negative values occur.
This is an unselected part of the compounds tested.

{"compound": "CN(C)CCN1CCN(Cc2ccco2)Cc2cccnc21", "A": -8.863, "B": -2.716}
{"compound": "Cc1nccn1-c1ccc(NS(=O)(=O)c2cnn(C)c2)cn1", "A": -12.62, "B": 7.282}
{"compound": "O=C(NCc1ccccc1CN1CCOCC1)c1ccc(Br)cc1F", "A": 3.059, "B": 4.487}
{"compound": "O=C(C1CC1)N(Cc1ccc2cc[nH]c2c1)C1CC1", "A": -20.44, "B": 3.924}
{"compound": "COc1ccc(CNC2CCN(c3ccccc3)C2)cc1O", "stereo": "stereo not given", "A": 0.1979, "B": 2.161}
{"compound": "CC(C)N1CCN(C(=O)c2[nH]nnc2Nc2ccccc2F)CC1", "A": -11.69, "B": -2.152}
{"compound": "CC(C)CCc1cc(C(=O)O)nc2[nH]c(=O)[nH]c(=O)c12", "A": 1.251, "B": -0.241}
{"compound": "COc1cccc(NC(=O)N(CCO)C2CCc3ccccc32)c1", "stereo": "stereo not given", "A": 10.91, "B": 5.122}
{"compound": "Cc1ccc(NC2CCN(C(=O)c3cc(C)no3)CC2)nn1", "A": -45.58, "B": 5.371}
{"compound": "Cc1ccc(NCCNC(=O)C2Cc3cc(C)c(C)cc3O2)nn1", "stereo": "stereo not given", "A": -2.204, "B": -1.653}
{"compound": "CC(C)c1ccsc1C(=O)N1CCCN(Cc2cscn2)CC1", "A": 23.95, "B": 6.41}
{"compound": "NC(=O)c1ccc(N2CCCCC2)c(NC(=O)c2ccc(Br)cc2)c1", "A": 8.008, "B": 8.892}
{"compound": "O=C(CN1CCOC(Cn2cccn2)C1)Nc1ccncc1", "stereo": "stereo not given", "A": 0.336, "B": 9.287}
{"compound": "O=C1CC2(CCN(c3nncs3)C2)CN1c1cccc(F)c1", "stereo": "stereo not given", "A": -2.554, "B": -11.85}
{"compound": "Cc1nc(C)n(C2CCCN(C(=O)c3c(C)nn4cccnc34)C2)n1", "stereo": "stereo not given", "A": -22.03, "B": -2.955}
{"compound": "FC1(F)CCN(Cc2ccccn2)CC12CCN(c1cnccn1)C2", "stereo": "stereo not given", "A": -6.222, "B": 3.951}
{"compound": "COCCN1CCC(CNC(=O)C2(C#N)CCCC2)CC1", "A": -4.469, "B": 5.242}
{"compound": "Cc1[nH]c(-c2ccccc2)nc1C(=O)N1CCC2(CCCO2)CC1", "A": -9.154, "B": 5.925}
{"compound": "Cc1nn(C)cc1CN1CCCC1c1cccc(Nc2nccs2)n1", "stereo": "stereo not given", "A": -18.16, "B": -2.713}
{"compound": "O=C(NCCC1=CCCCC1)C1CCCN(c2ccc3nncn3n2)C1", "stereo": "stereo not given", "A": 5.35, "B": -6.579}
{"compound": "CN1CCN(C2COC3(CCN(c4ccc(C#N)cc4)CC3)C2)CC1", "stereo": "stereo not given", "A": -0.2022, "B": 3.171}
{"compound": "Cc1ccc(CN2C[C@H](OCC3CCOCC3)[C@H]3COC[C@H]32)o1", "A": 17.11, "B": -0.8485}
{"compound": "Cn1cc(CN2CCC[C@]3(C[C@H](Oc4ncccc4F)CO3)C2)cn1", "A": -13.3, "B": 4.485}
{"compound": "Cc1cccc2[nH]c(C3CCCN(Cc4ccc(CO)o4)C3)nc12", "stereo": "stereo not given", "A": 2.501, "B": -1.952}
{"compound": "CCc1ccc(S(=O)(=O)NCC2CCN(c3cnccn3)CC2)s1", "A": -6.148, "B": 3.557}
{"compound": "Cc1cnn(CC2CCCN2CC(=O)Nc2nncs2)c1", "stereo": "stereo not given", "A": -3.035, "B": 2.871}
{"compound": "O=C(O)c1cccnc1CN1CCCCC1CCc1cccc(O)c1", "stereo": "stereo not given", "A": 12.38, "B": 4.691}
{"compound": "COc1cc(S(=O)(=O)N2C[C@@H](C)[C@@](C)(O)C2)c(C)cc1C", "A": -5.271, "B": -2.857}
{"compound": "CN1CCCC(CCC(=O)N2CCc3[nH]c(-c4ccccc4)nc3C2)C1", "stereo": "stereo not given", "A": 0.854, "B": 4.316}
{"compound": "CN(Cc1cnccn1)C(=O)c1ccnc(OC2CCC2)c1", "A": -14, "B": -1.493}
{"compound": "O=C(c1ccn[nH]1)N1CCCC(n2cncn2)C1", "stereo": "stereo not given", "A": 3.587, "B": 6.266}
{"compound": "c1cn2c(n1)CO[C@@H](CNCc1ccc3c(c1)OCO3)C2", "A": 0.4852, "B": 9.051}
{"compound": "O=C(NCCO)Nc1c(F)cc(F)cc1-c1ccccc1", "A": -24.95, "B": 2.421}
{"compound": "Cn1cc(CN2CCCC(c3nc(O)cc(-c4cccs4)n3)C2)cn1", "stereo": "stereo not given", "A": 25.85, "B": 3.263}
{"compound": "Cc1cc(C)c(CNC(=O)NCCNc2cnccn2)c(=O)[nH]1", "A": -8.586, "B": 4.512}
{"compound": "CC/C=C(\\C)CN1CCC(CNC(=O)c2ccnc(N)c2)C1", "stereo": "stereo not given", "A": -4.611, "B": -12.91}

For reference, 5 entries once more:

For CC/C=C(\C)CN1CCC(CNC(=O)c2ccnc(N)c2)C1 (stereo not given) the result was A: -4.611%; B: -12.91%.
For Cc1ccc(NC2CCN(C(=O)c3cc(C)no3)CC2)nn1 the result was A: -45.58%; B: 5.371%.
For Cc1cc(C)c(CNC(=O)NCCNc2cnccn2)c(=O)[nH]1 the result was A: -8.586%; B: 4.512%.
For Cc1ccc(NCCNC(=O)C2Cc3cc(C)c(C)cc3O2)nn1 (stereo not given) the result was A: -2.204%; B: -1.653%.
For O=C(O)c1cccnc1CN1CCCCC1CCc1cccc(O)c1 (stereo not given) the result was A: 12.38%; B: 4.691%.

Measurements from “University of Dundee, Small-Polar-MMV Screening Library” (2021), ChEMBL document CHEMBL3988442.